Data taken from PMC6805947.
No constants are given. Whether binding was seen depends on the method and setting. Some entries that bind do so weakly or less than the wild type.

Molecular target: SlaA (outer S-layer sheath protein of Sulfolobus solfataricus) (S. solfataricus (endogenous in the culture)) (UniProt Q980C7)
Experiment: reassembly of the denatured S-layer protein; S-layer preparation washed free of SlaB, resuspended in 20 mM Na2CO3 pH 10.5, agitated overnight at room temperature until sacculi were no longer visible by light microscopy; Brock medium added to 1x, pH titrated to 3.5 with H2SO4, overnight at 78 °C; aggregates observable; called preliminary data; both purified

binding: binds
B1: SlaA (outer S-layer sheath protein of Sulfolobus solfataricus) (protein, UniProt Q980C7 36-1231)
chain: AAIYTIPSVTSVSNTSNIVINLFFNATSNSTVGAQASAFNYGLAINYTLDAITFTVVLPSGTSYPLIKLNAKNFANYGYYDLAHNSIVLLLNTTASSTAKELAYSYEQSIGVTPSASYKIYNYTNKTVNVNQYMNELPLSMLIYMATNGKYNNLASLPVGTKLEFTYAGVTYIIAVSPTVKLVGELLNPLYTANSKMLPGTNYAVGRSNITVAVYDNLITTTTSPFNFTLTYSSLAPALIYWFVIANTTYTNNGASTPTASFQAPPFKQYFPSNSTILYSAAPTKSSILMFNGQMNVTAHENVTLTLQTGTNIYTSPNFNVTPPGNYTFSGKLGVGFNGFIYQNGSATLTATIFNGTINFFFSSTGQKAAFTFFLVPIVPINLGDNNGATVIYNGVSLNTGFPQVVVMFNITGNFTKSGSNYLLYGSVYEAELKPLGSTQLQKLAGATDSTQFVGNLISSASSPLVSYFNYGESTTTITGTSLSFTVLMPLKFIVERLGYIYLVTFHIWGPSATVTVTGVDYHGTQIALGSFRAYVALPSFYTLPKTPLVGLTCDNMYTLAQVSDAGSVLETSTANSNANNATVIGPYDLMSNAGLHVAIYNGSKLVKSGNLGLLPNATTAPITTTITLNGQTVALTYSSAPTAIYPVDFKFEPGFSYSVTTNVIYNTSIPTYVVTVYMPLKYILQTKIVMWYVSPDYAAYFYYSSTGQYQTSNVTLTFANVTPELVMPQVFPVGKLYMPFGINDPYYVFYSSISIGPQSGVIEAVENGFNVGNITSITVELNGMNESIVLSPLNVSKLLISSNLGEVSQCSPLFTTTLFNISALASLLGLPNAAALNGSYLYVTYHDIISGAYVTNRTLLVVGQFYVMPPTTPGSVEWILTAKYINATTGIPVEISYAVVQQPSAKVVDINAANASITQIQVTGVKIVSKYATVTVMYNPSNASTIVYMNGMFVASYGGNLISSLSETSTFGVYYGAVVNLYVATGTLSSPNGTMYVVLGSHKVAVGTANLYTYAGYHFGPYTALPLVSNVTFTVQDPVTHATLTGQTTLGAFNNTPIRLAPLGVSIPQTAQYKVFYYYSTPLVLSPTSQYIVLSVTSVISYPYPFYIETVSFLGYNVTTGTPVPGTPAFQTVYSPSLGPGVVLQVPVQSYQFISLSTPSEPHTVVMFAVPFAGGPAISLYPTFLVYANVTAISS
